Experimental data reported in the supplement of paper PMC10849652.
This is one part of the list.

Amino acid sequences for entries named in this document (tags omitted). A change or cut given only in a name is not applied to a line headed by its entry.
UniProt Q86YV9: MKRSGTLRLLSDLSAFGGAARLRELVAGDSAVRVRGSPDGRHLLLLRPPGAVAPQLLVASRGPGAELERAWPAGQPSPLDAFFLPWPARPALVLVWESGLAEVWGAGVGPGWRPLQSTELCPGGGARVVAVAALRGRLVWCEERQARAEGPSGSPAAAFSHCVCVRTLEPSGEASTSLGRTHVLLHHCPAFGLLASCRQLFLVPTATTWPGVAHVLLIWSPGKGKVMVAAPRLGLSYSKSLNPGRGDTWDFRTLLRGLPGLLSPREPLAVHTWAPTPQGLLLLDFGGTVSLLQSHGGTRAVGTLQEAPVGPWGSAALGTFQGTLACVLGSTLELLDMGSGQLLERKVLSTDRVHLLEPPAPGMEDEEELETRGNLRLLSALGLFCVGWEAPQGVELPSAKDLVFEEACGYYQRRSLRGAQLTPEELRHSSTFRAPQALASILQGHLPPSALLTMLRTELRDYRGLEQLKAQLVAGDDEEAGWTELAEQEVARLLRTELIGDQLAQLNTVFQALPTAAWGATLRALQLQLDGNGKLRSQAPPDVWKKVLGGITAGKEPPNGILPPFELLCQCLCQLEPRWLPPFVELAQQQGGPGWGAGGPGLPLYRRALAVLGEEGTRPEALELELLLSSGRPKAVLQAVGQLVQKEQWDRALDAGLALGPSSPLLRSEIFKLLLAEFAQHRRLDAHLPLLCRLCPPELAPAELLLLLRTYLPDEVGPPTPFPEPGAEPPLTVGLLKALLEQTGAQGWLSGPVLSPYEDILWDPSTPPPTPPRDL
UniProt P17483: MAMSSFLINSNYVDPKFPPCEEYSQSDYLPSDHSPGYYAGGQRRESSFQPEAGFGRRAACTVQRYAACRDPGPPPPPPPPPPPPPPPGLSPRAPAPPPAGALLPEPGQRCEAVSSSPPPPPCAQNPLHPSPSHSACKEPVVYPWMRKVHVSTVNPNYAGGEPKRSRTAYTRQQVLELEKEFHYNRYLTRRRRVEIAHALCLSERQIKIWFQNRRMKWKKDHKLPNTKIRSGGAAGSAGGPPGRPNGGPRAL
UniProt Q15651: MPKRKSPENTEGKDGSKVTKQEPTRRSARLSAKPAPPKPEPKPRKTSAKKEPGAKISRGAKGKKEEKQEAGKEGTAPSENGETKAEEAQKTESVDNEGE
UniProt Q96JB3: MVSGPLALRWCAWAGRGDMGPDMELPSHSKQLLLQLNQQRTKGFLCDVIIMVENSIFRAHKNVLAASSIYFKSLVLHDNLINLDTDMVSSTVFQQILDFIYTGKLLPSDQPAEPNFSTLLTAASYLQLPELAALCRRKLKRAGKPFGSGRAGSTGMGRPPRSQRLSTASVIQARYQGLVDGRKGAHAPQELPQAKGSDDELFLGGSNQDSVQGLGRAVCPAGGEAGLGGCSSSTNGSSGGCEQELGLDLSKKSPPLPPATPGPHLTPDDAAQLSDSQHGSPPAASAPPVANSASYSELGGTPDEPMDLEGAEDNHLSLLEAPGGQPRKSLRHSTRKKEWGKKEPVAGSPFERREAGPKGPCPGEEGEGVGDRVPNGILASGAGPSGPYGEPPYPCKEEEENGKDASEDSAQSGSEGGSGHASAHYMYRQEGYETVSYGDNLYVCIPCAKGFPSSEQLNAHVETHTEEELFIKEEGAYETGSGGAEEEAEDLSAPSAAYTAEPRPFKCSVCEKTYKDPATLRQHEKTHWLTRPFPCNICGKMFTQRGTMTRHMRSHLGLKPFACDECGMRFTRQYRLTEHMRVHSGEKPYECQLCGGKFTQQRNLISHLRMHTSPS
UniProt Q9NSC5: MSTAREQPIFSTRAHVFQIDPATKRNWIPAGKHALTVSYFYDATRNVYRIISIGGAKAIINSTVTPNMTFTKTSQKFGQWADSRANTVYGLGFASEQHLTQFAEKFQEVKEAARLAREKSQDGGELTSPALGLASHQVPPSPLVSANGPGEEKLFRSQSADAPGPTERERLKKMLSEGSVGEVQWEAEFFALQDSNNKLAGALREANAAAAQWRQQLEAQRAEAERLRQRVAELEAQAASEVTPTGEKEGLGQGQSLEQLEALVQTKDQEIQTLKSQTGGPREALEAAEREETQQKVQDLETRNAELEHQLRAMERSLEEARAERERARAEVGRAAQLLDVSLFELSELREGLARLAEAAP
UniProt Q15034: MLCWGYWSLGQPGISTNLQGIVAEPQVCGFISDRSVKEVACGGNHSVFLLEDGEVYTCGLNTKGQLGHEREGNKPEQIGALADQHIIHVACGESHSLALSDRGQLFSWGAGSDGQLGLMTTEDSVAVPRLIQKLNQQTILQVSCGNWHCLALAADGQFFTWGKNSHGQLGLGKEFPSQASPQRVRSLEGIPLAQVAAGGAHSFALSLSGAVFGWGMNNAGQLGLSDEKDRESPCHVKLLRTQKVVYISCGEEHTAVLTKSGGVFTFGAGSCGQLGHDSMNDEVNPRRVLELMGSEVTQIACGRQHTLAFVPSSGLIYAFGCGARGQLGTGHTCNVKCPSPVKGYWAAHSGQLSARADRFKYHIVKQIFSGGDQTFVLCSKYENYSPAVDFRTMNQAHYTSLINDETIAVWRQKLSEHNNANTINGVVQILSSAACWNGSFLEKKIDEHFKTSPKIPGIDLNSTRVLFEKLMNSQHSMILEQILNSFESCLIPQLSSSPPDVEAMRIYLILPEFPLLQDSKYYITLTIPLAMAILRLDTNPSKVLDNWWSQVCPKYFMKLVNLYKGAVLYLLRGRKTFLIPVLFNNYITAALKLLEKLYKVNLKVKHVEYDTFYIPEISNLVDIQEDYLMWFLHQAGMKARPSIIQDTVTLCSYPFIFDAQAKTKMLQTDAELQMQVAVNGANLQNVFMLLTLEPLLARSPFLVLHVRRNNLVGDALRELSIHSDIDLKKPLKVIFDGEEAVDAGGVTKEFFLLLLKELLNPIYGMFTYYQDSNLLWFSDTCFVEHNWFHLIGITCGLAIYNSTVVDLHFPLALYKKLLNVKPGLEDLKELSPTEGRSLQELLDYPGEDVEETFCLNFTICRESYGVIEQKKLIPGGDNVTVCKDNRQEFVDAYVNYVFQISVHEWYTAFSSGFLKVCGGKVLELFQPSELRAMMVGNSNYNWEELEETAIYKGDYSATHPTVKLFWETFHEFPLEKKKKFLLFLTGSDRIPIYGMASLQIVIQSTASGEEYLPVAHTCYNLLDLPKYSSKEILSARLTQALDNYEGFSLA
UniProt Q9BQA5: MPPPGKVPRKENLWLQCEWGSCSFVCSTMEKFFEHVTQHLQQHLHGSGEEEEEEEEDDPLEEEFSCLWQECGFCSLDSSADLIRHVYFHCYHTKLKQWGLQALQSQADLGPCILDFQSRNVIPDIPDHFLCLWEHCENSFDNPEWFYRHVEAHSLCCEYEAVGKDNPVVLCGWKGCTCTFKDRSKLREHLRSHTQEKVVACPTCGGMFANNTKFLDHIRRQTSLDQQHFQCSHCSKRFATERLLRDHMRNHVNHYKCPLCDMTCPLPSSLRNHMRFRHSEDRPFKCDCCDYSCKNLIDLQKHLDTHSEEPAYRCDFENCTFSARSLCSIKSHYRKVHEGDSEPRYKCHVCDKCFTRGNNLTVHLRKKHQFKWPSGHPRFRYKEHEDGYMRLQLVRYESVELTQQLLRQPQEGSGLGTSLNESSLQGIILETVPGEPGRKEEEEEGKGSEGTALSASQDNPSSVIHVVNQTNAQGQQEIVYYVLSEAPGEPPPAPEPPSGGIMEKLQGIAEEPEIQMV
UniProt P14210, whole entry, looked up: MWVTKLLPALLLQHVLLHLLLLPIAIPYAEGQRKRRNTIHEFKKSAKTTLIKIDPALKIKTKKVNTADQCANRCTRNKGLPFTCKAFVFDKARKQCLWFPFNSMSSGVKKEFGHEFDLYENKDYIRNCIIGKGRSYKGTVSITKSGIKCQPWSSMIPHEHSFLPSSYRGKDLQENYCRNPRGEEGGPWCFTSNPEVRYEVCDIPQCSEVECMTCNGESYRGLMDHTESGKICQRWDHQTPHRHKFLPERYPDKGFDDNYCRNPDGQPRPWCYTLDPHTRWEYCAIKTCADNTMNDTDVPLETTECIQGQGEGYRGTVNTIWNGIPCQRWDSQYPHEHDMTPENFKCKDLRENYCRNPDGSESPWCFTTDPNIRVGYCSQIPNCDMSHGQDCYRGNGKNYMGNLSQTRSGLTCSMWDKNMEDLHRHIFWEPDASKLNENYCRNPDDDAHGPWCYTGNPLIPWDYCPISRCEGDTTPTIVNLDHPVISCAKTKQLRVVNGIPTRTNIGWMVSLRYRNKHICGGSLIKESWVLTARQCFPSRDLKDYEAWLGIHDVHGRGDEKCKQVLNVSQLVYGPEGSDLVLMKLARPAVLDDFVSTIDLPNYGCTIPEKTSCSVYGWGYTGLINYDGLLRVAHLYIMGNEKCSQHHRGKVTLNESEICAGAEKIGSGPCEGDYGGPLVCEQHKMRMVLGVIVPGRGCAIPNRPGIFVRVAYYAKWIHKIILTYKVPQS
UniProt Q9NRZ9: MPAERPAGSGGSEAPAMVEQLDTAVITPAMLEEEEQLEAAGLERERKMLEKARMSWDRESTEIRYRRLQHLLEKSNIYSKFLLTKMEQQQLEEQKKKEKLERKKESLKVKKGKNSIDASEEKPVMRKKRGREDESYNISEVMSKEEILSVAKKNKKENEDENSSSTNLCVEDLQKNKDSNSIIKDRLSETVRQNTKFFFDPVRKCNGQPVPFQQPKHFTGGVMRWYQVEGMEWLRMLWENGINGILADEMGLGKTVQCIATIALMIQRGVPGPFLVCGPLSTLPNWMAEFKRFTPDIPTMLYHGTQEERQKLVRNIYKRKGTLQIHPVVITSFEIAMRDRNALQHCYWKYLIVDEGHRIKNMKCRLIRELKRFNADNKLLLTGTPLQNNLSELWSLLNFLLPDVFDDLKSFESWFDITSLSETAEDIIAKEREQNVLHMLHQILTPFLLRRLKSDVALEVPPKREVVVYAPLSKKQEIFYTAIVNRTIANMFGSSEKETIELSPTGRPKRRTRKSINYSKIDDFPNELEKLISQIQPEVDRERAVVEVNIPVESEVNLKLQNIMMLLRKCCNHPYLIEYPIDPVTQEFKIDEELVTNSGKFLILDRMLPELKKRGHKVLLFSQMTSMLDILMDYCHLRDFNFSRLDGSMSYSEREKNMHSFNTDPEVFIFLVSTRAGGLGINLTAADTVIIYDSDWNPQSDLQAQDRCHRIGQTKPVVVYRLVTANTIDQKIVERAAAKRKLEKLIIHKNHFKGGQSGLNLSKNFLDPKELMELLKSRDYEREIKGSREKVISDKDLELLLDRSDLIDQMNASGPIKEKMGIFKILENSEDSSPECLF
UniProt Q96MH2: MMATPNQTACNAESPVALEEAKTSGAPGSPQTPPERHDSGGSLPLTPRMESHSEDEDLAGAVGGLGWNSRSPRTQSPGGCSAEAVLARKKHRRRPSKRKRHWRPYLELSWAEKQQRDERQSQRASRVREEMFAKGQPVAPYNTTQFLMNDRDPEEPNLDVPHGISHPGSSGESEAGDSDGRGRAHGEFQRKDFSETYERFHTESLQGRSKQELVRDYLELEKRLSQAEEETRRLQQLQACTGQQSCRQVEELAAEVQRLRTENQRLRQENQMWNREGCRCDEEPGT
UniProt P17096: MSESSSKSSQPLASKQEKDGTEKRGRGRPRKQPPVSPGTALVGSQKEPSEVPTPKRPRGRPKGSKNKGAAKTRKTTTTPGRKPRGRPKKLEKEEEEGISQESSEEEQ
UniProt P04035: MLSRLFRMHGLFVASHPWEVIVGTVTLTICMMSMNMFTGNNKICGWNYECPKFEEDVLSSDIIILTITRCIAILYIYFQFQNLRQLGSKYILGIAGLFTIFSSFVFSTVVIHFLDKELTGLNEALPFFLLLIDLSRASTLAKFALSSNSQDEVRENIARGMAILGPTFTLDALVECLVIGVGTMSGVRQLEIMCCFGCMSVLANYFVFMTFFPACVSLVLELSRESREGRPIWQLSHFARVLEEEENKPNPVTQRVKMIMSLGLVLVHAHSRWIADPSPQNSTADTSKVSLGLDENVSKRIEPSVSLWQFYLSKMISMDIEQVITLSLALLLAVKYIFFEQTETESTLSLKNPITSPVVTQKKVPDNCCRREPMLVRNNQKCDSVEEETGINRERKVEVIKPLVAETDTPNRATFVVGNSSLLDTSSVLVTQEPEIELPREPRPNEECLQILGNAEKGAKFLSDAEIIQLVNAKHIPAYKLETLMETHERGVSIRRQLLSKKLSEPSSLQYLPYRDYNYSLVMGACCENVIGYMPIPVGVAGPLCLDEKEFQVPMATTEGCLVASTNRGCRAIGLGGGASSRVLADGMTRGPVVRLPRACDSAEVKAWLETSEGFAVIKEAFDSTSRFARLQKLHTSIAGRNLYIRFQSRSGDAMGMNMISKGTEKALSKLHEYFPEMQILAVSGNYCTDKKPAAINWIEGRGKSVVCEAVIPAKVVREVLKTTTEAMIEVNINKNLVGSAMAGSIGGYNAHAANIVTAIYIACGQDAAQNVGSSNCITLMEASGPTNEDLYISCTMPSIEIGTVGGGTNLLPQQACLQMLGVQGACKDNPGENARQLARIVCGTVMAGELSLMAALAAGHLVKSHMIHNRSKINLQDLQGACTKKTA

Compound: O=C1NC(=O)C(c2cnc3ccccn23)=C1c1cn2c3c(cc(F)cc13)CN(C(=O)N1CCCCC1)CC2
Assay: log2 fold change, soluble protein after heating vs DMSO (PISA); higher = thermal stabilisation; K562 lysate, 10 uM; active = over 0.2 and 3.5 SD of the protein, either way, in both replicates (recomputed)
Method in brief: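 Soluble protein was defined as the supernatant remaining after 21,000xg for 90 min, following pooling of heated aliquots and adjustment to 0.5% NP-40 at 4°C. Before that, crude K562 extract at 1 mg/mL protein in PBS pH 7.4 with 1 mM MgCl2 was treated with 10 μM compound for 30 min and heated for 3 min across 48°C-58°C. Quantification used TMTpro 16plex LC-MS/MS with channel sums equalised, and values are log-two fold changes in thermal stability relative to solvent controls from duplicates.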

log2 fold change, inactive:
HPS6 (UniProt Q86YV9) 0.087, HIGD2A (UniProt Q9BW72) 0.095, HOXB4 (UniProt P17483) -0.014, HMGN3 (UniProt Q15651) 0.036, HIC2 isoform 2 (UniProt Q96JB3) -0.005, HOMER3 (UniProt Q9NSC5) -0.022, HNRNPD (UniProt D6RF44) -0.04, HERC3 (UniProt Q15034) -0.025, HINFP (UniProt Q9BQA5) 0.077, HRAS (UniProt P01112) -0.017, HGF (UniProt P14210) -0.044, HELLS (UniProt Q9NRZ9) -0.068, HSP90AA2P (UniProt Q14568) -0.041, HNRNPM (UniProt M0QZM1) 0.038, HEXIM2 (UniProt Q96MH2) -0.149, HMGA1 isoform 2 (UniProt P17096) 0.128, HMGCR isoform 3 (UniProt P04035) -0.019
